In one assay the target is T1, ETS1 (UniProt P14921).
T1 sequence: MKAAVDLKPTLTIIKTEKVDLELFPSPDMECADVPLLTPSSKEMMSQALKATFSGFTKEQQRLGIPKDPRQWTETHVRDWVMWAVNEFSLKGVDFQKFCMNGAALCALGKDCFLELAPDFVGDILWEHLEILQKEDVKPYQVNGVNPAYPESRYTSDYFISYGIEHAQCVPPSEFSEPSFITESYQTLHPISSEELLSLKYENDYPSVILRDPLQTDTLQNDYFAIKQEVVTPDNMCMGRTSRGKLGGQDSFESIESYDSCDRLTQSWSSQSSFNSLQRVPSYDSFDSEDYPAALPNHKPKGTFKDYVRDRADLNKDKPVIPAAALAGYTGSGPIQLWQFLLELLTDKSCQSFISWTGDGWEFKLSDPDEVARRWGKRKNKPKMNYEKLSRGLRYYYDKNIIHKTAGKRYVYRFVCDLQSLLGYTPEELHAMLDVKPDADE
Put plainly: DAPPL (digital affinity profiling via proximity ligation, sequencing). The settings on record: 10 mM Tris-HCl pH 7.5, 50 mM NaCl, 1 mM DTT, 4% glycerol, room temperature, 30 min; GST-TFs on glutathione beads, 16-mer random dsDNA library, 0.1% …; high values mean tight binding; double strand, one strand shown; scale: fold enrichment (6-mer frequency, TF over GST control).

The next assay deals with T2, SPDEF (UniProt O95238).
T2 sequence: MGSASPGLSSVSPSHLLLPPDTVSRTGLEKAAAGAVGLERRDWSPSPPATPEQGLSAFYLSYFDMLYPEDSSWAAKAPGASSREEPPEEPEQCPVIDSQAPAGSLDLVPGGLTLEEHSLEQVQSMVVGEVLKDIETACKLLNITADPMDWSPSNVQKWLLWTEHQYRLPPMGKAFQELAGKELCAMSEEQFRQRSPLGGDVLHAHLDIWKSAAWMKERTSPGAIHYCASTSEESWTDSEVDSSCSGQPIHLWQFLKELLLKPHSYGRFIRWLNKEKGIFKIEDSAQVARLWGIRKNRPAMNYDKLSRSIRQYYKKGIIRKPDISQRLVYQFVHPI
The assay is described as above. The settings on record: 10 mM Tris-HCl pH 7.5, 50 mM NaCl, 1 mM DTT, 4% glycerol, room temperature, 30 min; GST-TFs on glutathione beads, 16-mer random dsDNA library, 0.1% …; high values mean tight binding; double strand, one strand shown; scale: fold enrichment (6-mer frequency, TF over GST control).

The list shows a part of the results, in another mix than the full data. For some assays here: At the low end of the ranking, values are background and their order means little. The list shows a part of the results. For some assays here: Construct or isoform of the protein are uncertain.

Here are results for 79 sequences from PMC7862700.

For the sequence GCCTTC, the binding signal with ETS1 amounted to 1.58; with SPDEF, 1.47.
Regarding GTTTGG, the results for the binding signal with ETS1 and in the assay with SPDEF were 1.05 and 0.94, respectively.
As for AATGAT, the binding signal in the assay with ETS1 and in the assay with SPDEF was 1.13 each time.
Take CTAAGC: the values for the binding signal with ETS1 and with SPDEF were 1.12 and 1.06, respectively.
On the same counts, the results for ACATGG are 1.08 and 0.914.
On the same counts, the results for AATCGA are 1.08 and 0.927.
For the sequence GCTCAG, the binding signal came to 1.2 with ETS1 and 1.09 with SPDEF.
On the same counts, the results for ATACTA are 1.23 and 1.17.
For GAACAT, the binding signal with ETS1 amounted to 1.07; with SPDEF, 0.981.
CCAATG: the binding signal with ETS1 is 1.24; with SPDEF, 1.02.
The corresponding values for AAAAAA are 1.43 and 1.21.
For CATCCC, the binding signal in the assay with ETS1 came out at 1.16; with SPDEF, 1.47.
Regarding CTTGGT, the binding signal in the assay with ETS1 worked out at 1.56; with SPDEF it was 1.51.
The corresponding values for TTAACA are 1.19 and 1.21.
On the same counts, the results for TGTTAT are 1.45 and 1.41.
On the same counts, the results for ATTCCG are 1.79 and 1.85.
As for CTCTGA, the binding signal with ETS1 was found to be 1.12; with SPDEF it was 1.11.
Turning to TTACCC, the values for the binding signal in the assay with ETS1 and in the assay with SPDEF were 1.4 and 1.33, respectively.
Consider TTAACG, for which the binding signal with ETS1 worked out at 1.07; with SPDEF, 1.23.
Take TGCGCG: the binding signal with ETS1 stood at 1.07; with SPDEF, 0.972.
With CGATAT, the binding signal with ETS1 worked out at 1.19; in the assay with SPDEF it was 1.06.
As for GATTTT, the binding signal with ETS1 and with SPDEF was 1.14 throughout.
In the case of CTTATG, the binding signal was determined as 1.51 with ETS1 and 1.53 with SPDEF.
On the same counts, the results for CTTTCC are 1.75 and 1.96.
Turning to CTGAGC, the binding signal was 1.06 with ETS1 and 1.16 in the assay with SPDEF.
On the same counts, the results for TCGCTC are 1.22 and 1.19.
On the same counts, the results for CCTACT are 1.68 and 1.49.
The corresponding values for CCTCTT are 1.54 and 1.57.
Turning to AGACCT, the binding signal with ETS1 was found to be 1.08; in the assay with SPDEF, 0.91.
GTGCTC: the figures for the binding signal with ETS1 and in the assay with SPDEF were 1.24 and 1.05, respectively.
The corresponding values for GAATCT are 1.11 and 0.989.
For CTGTAA, the binding signal came out at 1.1 in the assay with ETS1 and 0.962 with SPDEF.
As to CACTTG, the binding signal with ETS1 came to 1.27; with SPDEF it was 1.35.
The corresponding values for GTACTC are 0.97 and 1.02.
The corresponding values for TGAACC are 1.06 and 1.16.
On the same counts, the results for TTGCGC are 1.14 and 1.06.
As to GCACCC, the binding signal with ETS1 was found to be 1.26; in the assay with SPDEF, 1.17.
The corresponding values for TGCACT are 1.24 and 1.4.
ACTTAA: the binding signal turned out to be 1.15 in the assay with ETS1 and 1.17 with SPDEF.
With GAATAA, the figures for the binding signal in the assay with ETS1 and in the assay with SPDEF were 1.14 and 1.09, respectively.
The corresponding values for TATTCA are 1.43 and 1.28.
As for CACGCT, the figures for the binding signal in the assay with ETS1 and in the assay with SPDEF were 1.3 and 1.35, respectively.
As to GTTCAT, the binding signal in the assay with ETS1 came to 1.15; with SPDEF, 1.18.
On the same counts, the results for TTAGGG are 1.12 and 1.18.
The corresponding values for TATAAG are 1.12 and 1.2.
On to CGCTAC, for which the binding signal with ETS1 was determined as 1.15; with SPDEF, 1.21.
On the same counts, the results for ACCGAA are 1.04 and 0.969.
On the same counts, the results for CGATCG are 1.1 and 1.1.
The corresponding values for TCCCAC are 1.4 and 1.33.
On to TCTTAC, for which the binding signal came to 1.33 with ETS1 and 1.36 in the assay with SPDEF.
On the same counts, the results for ATTTGA are 1.25 and 1.19.
On the same counts, the results for GTCACA are 1.08 and 1.08.
The corresponding values for CTTTAA are 1.28 and 1.28.
In the case of AACCCA, the results for the binding signal with ETS1 and with SPDEF were 1.08 and 0.97, respectively.
The corresponding values for TACGTT are 1.23 and 1.22.
For TGTTCT, the binding signal with ETS1 was determined as 1.43; with SPDEF, 1.22.
Turning to TAACTC, the values for the binding signal with ETS1 and with SPDEF were 1.26 and 1.23, respectively.
The corresponding values for GCCTCA are 1.21 and 1.16.
On the same counts, the results for ATGACG are 1.44 and 1.45.
On the same counts, the results for TTCTTT are 1.12 and 1.08.
In the case of TCTTAG, the results for the binding signal with ETS1 and with SPDEF were 1.21 and 1.24, respectively.
The corresponding values for CTACTC are 1.39 and 1.29.
As for AATGGG, the binding signal was determined as 1.21 with ETS1 and 1.12 with SPDEF.
With AGCCCC, the figures for the binding signal with ETS1 and with SPDEF were 1.11 and 0.97, respectively.
The corresponding values for ACGATC are 1.13 and 0.984.
In the case of CTAAGT, the binding signal was 1.19 with ETS1 and 1.3 with SPDEF.
The corresponding values for CTCCTG are 1.64 and 1.6.
Regarding AATTGT, the binding signal with ETS1 worked out at 1.3; in the assay with SPDEF, 1.21.
The corresponding values for CTTCCT are 3.23 and 2.74.
On the same counts, the results for CCATTC are 1.17 and 1.13.
For the sequence TGAACT, the binding signal with ETS1 amounted to 1.2; in the assay with SPDEF, 1.16.
On the same counts, the results for CTGATA are 1.1 and 1.15.
Take GGTTTA: the binding signal with ETS1 amounted to 1.03; with SPDEF, 1.1.
Consider GCTCGC, for which the binding signal turned out to be 1.36 in the assay with ETS1 and 1.29 with SPDEF.
With TCCATC, the binding signal in the assay with ETS1 is 1.16; with SPDEF, 1.3.
For the sequence CGACAC, the binding signal came out at 1.21 with ETS1 and 1.15 in the assay with SPDEF.
Consider ATGTGT, for which the binding signal is 1.12 in the assay with ETS1 and 1.23 with SPDEF.
In the case of CCGCCC, the binding signal was found to be 1.36 in the assay with ETS1 and 1.27 in the assay with SPDEF.
The corresponding values for CCTACG are 1.35 and 1.41.
